Measurements as given in US20220281969A1 (ANTLERA THERAPEUTICS, published 2022).
These are yes or no findings as the source states them, for the method shown. Some results given as binding are weak or reduced against the parent protein; the word gives no strength.

Target: T1, recombinant mouse LRP6His chimera (mouse, UniProt O88572 20-1370)
T1 construct: extracellular domain; not shown: His tag
T1 sequence (looked up): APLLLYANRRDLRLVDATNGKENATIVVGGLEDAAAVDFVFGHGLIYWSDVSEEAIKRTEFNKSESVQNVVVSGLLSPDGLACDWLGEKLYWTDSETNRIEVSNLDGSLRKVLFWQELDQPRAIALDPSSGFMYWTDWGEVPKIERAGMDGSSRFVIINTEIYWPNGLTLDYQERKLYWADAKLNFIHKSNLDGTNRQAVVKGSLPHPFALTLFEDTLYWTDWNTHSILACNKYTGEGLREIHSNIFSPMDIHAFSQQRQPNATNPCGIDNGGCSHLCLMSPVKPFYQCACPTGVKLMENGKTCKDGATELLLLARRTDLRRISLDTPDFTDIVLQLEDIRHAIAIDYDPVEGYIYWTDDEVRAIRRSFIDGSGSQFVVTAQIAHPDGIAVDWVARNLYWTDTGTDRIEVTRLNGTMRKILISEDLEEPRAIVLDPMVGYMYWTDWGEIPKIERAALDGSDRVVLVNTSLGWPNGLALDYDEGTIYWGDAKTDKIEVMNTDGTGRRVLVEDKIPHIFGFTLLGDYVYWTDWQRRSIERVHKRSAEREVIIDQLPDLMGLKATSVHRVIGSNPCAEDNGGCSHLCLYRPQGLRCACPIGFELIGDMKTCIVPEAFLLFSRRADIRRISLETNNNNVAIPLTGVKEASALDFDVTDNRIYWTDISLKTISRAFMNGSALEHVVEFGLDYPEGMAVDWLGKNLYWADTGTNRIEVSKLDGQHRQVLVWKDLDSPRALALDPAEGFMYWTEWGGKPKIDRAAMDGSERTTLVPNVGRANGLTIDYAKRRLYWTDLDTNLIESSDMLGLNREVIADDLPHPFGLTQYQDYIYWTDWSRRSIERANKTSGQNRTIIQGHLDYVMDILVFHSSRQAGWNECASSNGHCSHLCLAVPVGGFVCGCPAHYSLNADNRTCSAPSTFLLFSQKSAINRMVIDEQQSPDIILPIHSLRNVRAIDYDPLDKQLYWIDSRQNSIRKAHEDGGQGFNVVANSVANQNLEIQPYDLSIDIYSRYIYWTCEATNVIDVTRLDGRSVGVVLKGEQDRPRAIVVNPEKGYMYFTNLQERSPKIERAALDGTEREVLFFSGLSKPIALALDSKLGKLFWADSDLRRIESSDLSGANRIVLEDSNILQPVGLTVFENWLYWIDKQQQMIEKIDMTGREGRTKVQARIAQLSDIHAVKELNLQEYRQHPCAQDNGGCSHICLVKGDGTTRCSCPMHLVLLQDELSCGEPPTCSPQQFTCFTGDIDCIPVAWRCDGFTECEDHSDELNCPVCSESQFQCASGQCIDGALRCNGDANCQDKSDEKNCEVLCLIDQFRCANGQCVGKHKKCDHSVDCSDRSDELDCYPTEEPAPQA
Assay: single-point ELISA, IgG1 on coated antigen
Experimental: FIGS. 1a and 1b show LRP six antibodies. (A) The amino acid sequences of the complementarity determining regions (CDR) of the heavy (H) and the light (L) chains are presented. The antibodies were grouped into unique epitopes as determined by competitive ELISAs. (B) Single-point ELISAs were performed on 96-well Maxisorb immune plates coated with the […] of mouse LRP5, mouse LRP6 and human LRP6 chimeras. The plates were incubated with the purified Fab or IgG1 at the concentrations indicated followed by incubation with horseradish peroxidase (HRP)-conjugated anti-kappa antibody. The wells were washed eight times followed by incubation with 3,3′,5,5′-tetramethylbenzidine/H₂O₂ peroxidase (TMB) substrate for 5-10 min. The reaction was stopped by adding one M H₃PO₄ and the absorbance was measured spectrometrically at 450 nm in a microtiter plate reader.
The full length IgG1s were purified and a single-point ELISA was done to determine the specificity of the antibodies. […] A multipoint competitive ELISA was used to determine the relative affinities of the antibodies to the recombinant antigen.

binding: binds
B1: LRP6-A10 IgG1 antibody (antibody, V domains shown)
VH: EVQLVESGGGLVQPGGSLRLSCAASGFNISYSSIHWVRQAPGKGLEWVAYISSYYGYTYYADSVKGRFTISADTSKNTAYLQMNSLRAEDTAVYYCARAHYFPWAGAMDYWGQGTLVTVSS
VL: DIQMTQSPSSLSASVGDRVTITCRASQSVSSAVAWYQQKPGKAPKLLIYSASSLYSGVPSRFSGSRSGTDFTLTISSLQPEDFATYYCQQYSWGPFTFGQGTKVEIKR
notes: Tested as purified full length IgG1
